According to patent publication US20160046678A1 (ZYNGENIA, published 2016):
No constants are given. Whether binding was seen depends on the method and setting. Some binding calls cover weakened binding; strength is not graded here.

T1: Angiopoietin-2 (Ang2) (human, UniProt O15123 19-496, biotin label in Examples 22-24)
T1 construct: also called rhAng2; recombinant Ang2
T1 sequence (looked up): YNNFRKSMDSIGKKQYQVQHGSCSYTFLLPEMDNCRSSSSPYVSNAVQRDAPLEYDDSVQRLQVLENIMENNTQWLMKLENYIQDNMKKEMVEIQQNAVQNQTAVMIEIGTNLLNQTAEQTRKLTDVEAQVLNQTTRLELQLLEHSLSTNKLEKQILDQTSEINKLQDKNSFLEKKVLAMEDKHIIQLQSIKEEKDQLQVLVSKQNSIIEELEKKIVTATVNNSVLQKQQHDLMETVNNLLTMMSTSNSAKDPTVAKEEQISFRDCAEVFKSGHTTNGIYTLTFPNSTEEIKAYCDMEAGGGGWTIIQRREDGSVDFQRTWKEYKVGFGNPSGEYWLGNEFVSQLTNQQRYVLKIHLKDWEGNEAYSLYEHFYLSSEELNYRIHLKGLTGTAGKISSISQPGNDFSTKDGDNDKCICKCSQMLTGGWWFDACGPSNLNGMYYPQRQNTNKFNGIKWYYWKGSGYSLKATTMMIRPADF

B1: ANG37 (peptide)
peptide: ICIYWKDPWCY
B2: ANG59 (peptide)
peptide: MCPIWYDHQWCH
B3: ANG67 (peptide)
peptide: LQYEEFYDHV
B4: ANG66 (peptide)
peptide: PCAWYPNPEFCY
B5: ANG49 (peptide)
peptide: MCIYWKEPWCY
B6: ANG54 (peptide)
peptide: ECTDYPEWRYCQ
B7: ANG52 (peptide)
peptide: HCPWGTTMNCV
B8: ANG43 (peptide)
peptide: MCWNHWWMCE
B9: ANG42 (peptide)
peptide: MCTWQFMVCPGQAGQGGGSGGSYCWEYVYRCD
B10: ANG56 (peptide)
peptide: PCAWFPNPSFCY
B11: ANG68 (peptide)
peptide: QCPYRINHQRCS
B12: ANG47 (peptide)
peptide: LCFNHWWMCP
B13: ANG38 (peptide)
peptide: KCPDLWPQCY
B14: ANG50 (peptide)
peptide: WCDHTEAWPECF
B15: ANG35 (peptide)
peptide: RCPDMWFPACW
B16: ANG58 (peptide)
peptide: MCPWWYDHLHCY
B17: ANG64 (peptide)
peptide: WCDHWIVWPECW
B18: ANG62 (peptide)
peptide: ECAWFPNPWCCY
B19: ANG63 (peptide)
peptide: GCWHDGFMCF
B20: ANG61 (peptide)
peptide: ECWWYYNHFWCH
B21: ANG51 (peptide)
peptide: ECYWYPNPMWCY
B22: ANG65 (peptide)
peptide: QCNDYPNWRYCF
B23: ANG69 (peptide)
peptide: DCVWFPNPDWCY
B24: ANG46 (peptide)
peptide: HCIFNFPACI
B25: ANG55 (peptide)
peptide: ECFFFPNPWHCY
B26: ANG40 (peptide)
peptide: YCWVIAKSCVGQAGQGGGGGGSICRHYVWRCE
B27: ANG41 (peptide)
peptide: LCWNHWWMCD

target: T1, Angiopoietin-2 (Ang2); assay: Example 48, method not detailed

binding, binds:
B1, B2, B3, B4, B5, B6, B7, B8, B9, B10, B11, B12, B13, B14, B15, B16, B17, B18, B19, B20, B21, B22, B23, B24, B25, B26, B27
